Measurements as given in patent publication US20140335107A1.
No constants are given. Whether binding was seen depends on the method and setting. Some entries that bind do so weakly or less than the wild type.

Protein sequences, listed by entry. Tags and fused reporters are not part of them. Lines headed by an entry give the natural chain unless they say otherwise; changes in a name come on top.
UniProt P40259: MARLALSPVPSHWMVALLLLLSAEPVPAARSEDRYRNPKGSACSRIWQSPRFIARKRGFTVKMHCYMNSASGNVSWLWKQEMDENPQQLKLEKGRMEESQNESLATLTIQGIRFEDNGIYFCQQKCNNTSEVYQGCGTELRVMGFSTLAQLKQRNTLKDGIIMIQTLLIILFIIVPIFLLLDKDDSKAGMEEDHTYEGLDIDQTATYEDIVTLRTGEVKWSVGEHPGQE

target: extracellular domain of human CD79b (huCD79becd) (human) (UniProt P40259); experiment: phage selection, Fab on phage

| binding | Binder |
| --- | --- |
| binds | huMA79b graft variant with HVR-H1 of SEQ ID NO: 75 (Fab, name in Kabat numbering, V domains shown) VH: EVQLVESGGGLVQPGGSLRLSCAASGYSFRRYWIEWVRQAPGKGLEWVGEILPGGGDTNYNEIFKGRFTISADTSKNTAYLQMNSLRAEDTAVYYCTRRVPVYFDYWGQGTLVTVSS VL: DIQMTQSPSSLSASVGDRVTITCKASQSVDYDGDSFLNWYQQKPGKAPKLLIYAASNLESGVPSRFSGSGSGTDFTLTISSLQPEDFATYYCQQSNEDPLTFGQGTKVEIKR |
| binds | huMA79b graft variant with HVR-H3 of SEQ ID NO: 95 (Fab, name in Kabat numbering, V domains shown) VH: EVQLVESGGGLVQPGGSLRLSCAASGYTFSSYWIEWVRQAPGKGLEWVGEILPGGGDTNYNEIFKGRFTISADTSKNTAYLQMNSLRAEDTAVYYCTRRVPIKLDYWGQGTLVTVSS VL: DIQMTQSPSSLSASVGDRVTITCKASQSVDYDGDSFLNWYQQKPGKAPKLLIYAASNLESGVPSRFSGSGSGTDFTLTISSLQPEDFATYYCQQSNEDPLTFGQGTKVEIKR |
| binds | huMA79b graft variant with HVR-H3 of SEQ ID NO: 91 (also printed for SEQ ID NO: 97 and 104) (Fab, name in Kabat numbering, V domains shown) VH: EVQLVESGGGLVQPGGSLRLSCAASGYTFSSYWIEWVRQAPGKGLEWVGEILPGGGDTNYNEIFKGRFTISADTSKNTAYLQMNSLRAEDTAVYYCTRRVPIYFDYWGQGTLVTVSS VL: DIQMTQSPSSLSASVGDRVTITCKASQSVDYDGDSFLNWYQQKPGKAPKLLIYAASNLESGVPSRFSGSGSGTDFTLTISSLQPEDFATYYCQQSNEDPLTFGQGTKVEIKR |
| binds | huMA79b graft variant with HVR-H3 of SEQ ID NO: 99 (Fab, name in Kabat numbering, V domains shown) VH: EVQLVESGGGLVQPGGSLRLSCAASGYTFSSYWIEWVRQAPGKGLEWVGEILPGGGDTNYNEIFKGRFTISADTSKNTAYLQMNSLRAEDTAVYYCTRRVPVVLDYWGQGTLVTVSS VL: DIQMTQSPSSLSASVGDRVTITCKASQSVDYDGDSFLNWYQQKPGKAPKLLIYAASNLESGVPSRFSGSGSGTDFTLTISSLQPEDFATYYCQQSNEDPLTFGQGTKVEIKR |
| binds | huMA79b graft variant with HVR-H3 of SEQ ID NO: 98 (Fab, name in Kabat numbering, V domains shown) VH: EVQLVESGGGLVQPGGSLRLSCAASGYTFSSYWIEWVRQAPGKGLEWVGEILPGGGDTNYNEIFKGRFTISADTSKNTAYLQMNSLRAEDTAVYYCTRRVPVYFSYWGQGTLVTVSS VL: DIQMTQSPSSLSASVGDRVTITCKASQSVDYDGDSFLNWYQQKPGKAPKLLIYAASNLESGVPSRFSGSGSGTDFTLTISSLQPEDFATYYCQQSNEDPLTFGQGTKVEIKR |
| binds | huMA79b graft variant with HVR-H1 of SEQ ID NO: 77 (Fab, name in Kabat numbering, V domains shown) VH: EVQLVESGGGLVQPGGSLRLSCAASGYPFTRYWIEWVRQAPGKGLEWVGEILPGGGDTNYNEIFKGRFTISADTSKNTAYLQMNSLRAEDTAVYYCTRRVPVYFDYWGQGTLVTVSS VL: DIQMTQSPSSLSASVGDRVTITCKASQSVDYDGDSFLNWYQQKPGKAPKLLIYAASNLESGVPSRFSGSGSGTDFTLTISSLQPEDFATYYCQQSNEDPLTFGQGTKVEIKR |
| binds | huMA79b graft variant with HVR-H3 of SEQ ID NO: 87 (also printed for SEQ ID NO: 103) (Fab, name in Kabat numbering, V domains shown) VH: EVQLVESGGGLVQPGGSLRLSCAASGYTFSSYWIEWVRQAPGKGLEWVGEILPGGGDTNYNEIFKGRFTISADTSKNTAYLQMNSLRAEDTAVYYCTRRVPIYLDYWGQGTLVTVSS VL: DIQMTQSPSSLSASVGDRVTITCKASQSVDYDGDSFLNWYQQKPGKAPKLLIYAASNLESGVPSRFSGSGSGTDFTLTISSLQPEDFATYYCQQSNEDPLTFGQGTKVEIKR |
| binds | huMA79b graft variant with HVR-H1 of SEQ ID NO: 76 (Fab, name in Kabat numbering, V domains shown) VH: EVQLVESGGGLVQPGGSLRLSCAASGYSFPSYWLQWVRQAPGKGLEWVGEILPGGGDTNYNEIFKGRFTISADTSKNTAYLQMNSLRAEDTAVYYCTRRVPVYFDYWGQGTLVTVSS VL: DIQMTQSPSSLSASVGDRVTITCKASQSVDYDGDSFLNWYQQKPGKAPKLLIYAASNLESGVPSRFSGSGSGTDFTLTISSLQPEDFATYYCQQSNEDPLTFGQGTKVEIKR |
| binds | huMA79b graft variant with HVR-H3 of SEQ ID NO: 96 (Fab, name in Kabat numbering, V domains shown) VH: EVQLVESGGGLVQPGGSLRLSCAASGYTFSSYWIEWVRQAPGKGLEWVGEILPGGGDTNYNEIFKGRFTISADTSKNTAYLQMNSLRAEDTAVYYCTRRVPIRFDYWGQGTLVTVSS VL: DIQMTQSPSSLSASVGDRVTITCKASQSVDYDGDSFLNWYQQKPGKAPKLLIYAASNLESGVPSRFSGSGSGTDFTLTISSLQPEDFATYYCQQSNEDPLTFGQGTKVEIKR |
| binds | huMA79b graft variant with HVR-H1 of SEQ ID NO: 79 (Fab, name in Kabat numbering, V domains shown) VH: EVQLVESGGGLVQPGGSLRLSCAASGYPFRSYWISWVRQAPGKGLEWVGEILPGGGDTNYNEIFKGRFTISADTSKNTAYLQMNSLRAEDTAVYYCTRRVPVYFDYWGQGTLVTVSS VL: DIQMTQSPSSLSASVGDRVTITCKASQSVDYDGDSFLNWYQQKPGKAPKLLIYAASNLESGVPSRFSGSGSGTDFTLTISSLQPEDFATYYCQQSNEDPLTFGQGTKVEIKR |
| binds | huMA79b graft variant with HVR-H1 of SEQ ID NO: 85 (Fab, name in Kabat numbering, V domains shown) VH: EVQLVESGGGLVQPGGSLRLSCAASGFPFTSYWISWVRQAPGKGLEWVGEILPGGGDTNYNEIFKGRFTISADTSKNTAYLQMNSLRAEDTAVYYCTRRVPVYFDYWGQGTLVTVSS VL: DIQMTQSPSSLSASVGDRVTITCKASQSVDYDGDSFLNWYQQKPGKAPKLLIYAASNLESGVPSRFSGSGSGTDFTLTISSLQPEDFATYYCQQSNEDPLTFGQGTKVEIKR |
| binds | huMA79b graft variant with HVR-H1 of SEQ ID NO: 83 (Fab, name in Kabat numbering, V domains shown) VH: EVQLVESGGGLVQPGGSLRLSCAASGYPFNGYWINWVRQAPGKGLEWVGEILPGGGDTNYNEIFKGRFTISADTSKNTAYLQMNSLRAEDTAVYYCTRRVPVYFDYWGQGTLVTVSS VL: DIQMTQSPSSLSASVGDRVTITCKASQSVDYDGDSFLNWYQQKPGKAPKLLIYAASNLESGVPSRFSGSGSGTDFTLTISSLQPEDFATYYCQQSNEDPLTFGQGTKVEIKR |
| binds | huMA79b graft variant with HVR-H1 of SEQ ID NO: 78 (Fab, name in Kabat numbering, V domains shown) VH: EVQLVESGGGLVQPGGSLRLSCAASGYPFSGYWIEWVRQAPGKGLEWVGEILPGGGDTNYNEIFKGRFTISADTSKNTAYLQMNSLRAEDTAVYYCTRRVPVYFDYWGQGTLVTVSS VL: DIQMTQSPSSLSASVGDRVTITCKASQSVDYDGDSFLNWYQQKPGKAPKLLIYAASNLESGVPSRFSGSGSGTDFTLTISSLQPEDFATYYCQQSNEDPLTFGQGTKVEIKR |
| binds | huMA79b graft variant with HVR-H3 of SEQ ID NO: 89 (Fab, name in Kabat numbering, V domains shown) VH: EVQLVESGGGLVQPGGSLRLSCAASGYTFSSYWIEWVRQAPGKGLEWVGEILPGGGDTNYNEIFKGRFTISADTSKNTAYLQMNSLRAEDTAVYYCTRRVPVKLDYWGQGTLVTVSS VL: DIQMTQSPSSLSASVGDRVTITCKASQSVDYDGDSFLNWYQQKPGKAPKLLIYAASNLESGVPSRFSGSGSGTDFTLTISSLQPEDFATYYCQQSNEDPLTFGQGTKVEIKR |
| binds | huMA79b graft variant with HVR-H3 of SEQ ID NO: 92 (Fab, name in Kabat numbering, V domains shown) VH: EVQLVESGGGLVQPGGSLRLSCAASGYTFSSYWIEWVRQAPGKGLEWVGEILPGGGDTNYNEIFKGRFTISADTSKNTAYLQMNSLRAEDTAVYYCTRRVPFCLDYWGQGTLVTVSS VL: DIQMTQSPSSLSASVGDRVTITCKASQSVDYDGDSFLNWYQQKPGKAPKLLIYAASNLESGVPSRFSGSGSGTDFTLTISSLQPEDFATYYCQQSNEDPLTFGQGTKVEIKR |
| binds | huMA79b graft variant with HVR-H1 of SEQ ID NO: 86 (Fab, name in Kabat numbering, V domains shown) VH: EVQLVESGGGLVQPGGSLRLSCAASGFPFNRYWINWVRQAPGKGLEWVGEILPGGGDTNYNEIFKGRFTISADTSKNTAYLQMNSLRAEDTAVYYCTRRVPVYFDYWGQGTLVTVSS VL: DIQMTQSPSSLSASVGDRVTITCKASQSVDYDGDSFLNWYQQKPGKAPKLLIYAASNLESGVPSRFSGSGSGTDFTLTISSLQPEDFATYYCQQSNEDPLTFGQGTKVEIKR |
| binds | huMA79b graft variant with HVR-H3 of SEQ ID NO: 90 (also printed for SEQ ID NO: 93) (Fab, name in Kabat numbering, V domains shown) VH: EVQLVESGGGLVQPGGSLRLSCAASGYTFSSYWIEWVRQAPGKGLEWVGEILPGGGDTNYNEIFKGRFTISADTSKNTAYLQMNSLRAEDTAVYYCTRRVPVYLDYWGQGTLVTVSS VL: DIQMTQSPSSLSASVGDRVTITCKASQSVDYDGDSFLNWYQQKPGKAPKLLIYAASNLESGVPSRFSGSGSGTDFTLTISSLQPEDFATYYCQQSNEDPLTFGQGTKVEIKR |
| binds | huMA79b graft variant with HVR-H1 of SEQ ID NO: 82 (Fab, name in Kabat numbering, V domains shown) VH: EVQLVESGGGLVQPGGSLRLSCAASGYPFNRYWIEWVRQAPGKGLEWVGEILPGGGDTNYNEIFKGRFTISADTSKNTAYLQMNSLRAEDTAVYYCTRRVPVYFDYWGQGTLVTVSS VL: DIQMTQSPSSLSASVGDRVTITCKASQSVDYDGDSFLNWYQQKPGKAPKLLIYAASNLESGVPSRFSGSGSGTDFTLTISSLQPEDFATYYCQQSNEDPLTFGQGTKVEIKR |
| binds | huMA79b graft variant with HVR-H1 of SEQ ID NO: 80 (Fab, name in Kabat numbering, V domains shown) VH: EVQLVESGGGLVQPGGSLRLSCAASGYPFRSYWINWVRQAPGKGLEWVGEILPGGGDTNYNEIFKGRFTISADTSKNTAYLQMNSLRAEDTAVYYCTRRVPVYFDYWGQGTLVTVSS VL: DIQMTQSPSSLSASVGDRVTITCKASQSVDYDGDSFLNWYQQKPGKAPKLLIYAASNLESGVPSRFSGSGSGTDFTLTISSLQPEDFATYYCQQSNEDPLTFGQGTKVEIKR |
| binds | huMA79b graft variant with HVR-H3 of SEQ ID NO: 100 (Fab, name in Kabat numbering, V domains shown) VH: EVQLVESGGGLVQPGGSLRLSCAASGYTFSSYWIEWVRQAPGKGLEWVGEILPGGGDTNYNEIFKGRFTISADTSKNTAYLQMNSLRAEDTAVYYCTRRVPVRLDYWGQGTLVTVSS VL: DIQMTQSPSSLSASVGDRVTITCKASQSVDYDGDSFLNWYQQKPGKAPKLLIYAASNLESGVPSRFSGSGSGTDFTLTISSLQPEDFATYYCQQSNEDPLTFGQGTKVEIKR |
| binds | huMA79b graft variant with HVR-H1 of SEQ ID NO: 81 (Fab, name in Kabat numbering, V domains shown) VH: EVQLVESGGGLVQPGGSLRLSCAASGYPFRGYWIEWVRQAPGKGLEWVGEILPGGGDTNYNEIFKGRFTISADTSKNTAYLQMNSLRAEDTAVYYCTRRVPVYFDYWGQGTLVTVSS VL: DIQMTQSPSSLSASVGDRVTITCKASQSVDYDGDSFLNWYQQKPGKAPKLLIYAASNLESGVPSRFSGSGSGTDFTLTISSLQPEDFATYYCQQSNEDPLTFGQGTKVEIKR |
| binds | huMA79b graft variant with HVR-H1 of SEQ ID NO: 84 (Fab, name in Kabat numbering, V domains shown) VH: EVQLVESGGGLVQPGGSLRLSCAASGYNVSSYWLSWVRQAPGKGLEWVGEILPGGGDTNYNEIFKGRFTISADTSKNTAYLQMNSLRAEDTAVYYCTRRVPVYFDYWGQGTLVTVSS VL: DIQMTQSPSSLSASVGDRVTITCKASQSVDYDGDSFLNWYQQKPGKAPKLLIYAASNLESGVPSRFSGSGSGTDFTLTISSLQPEDFATYYCQQSNEDPLTFGQGTKVEIKR |
